Laboratory results reported in the supplement of paper PMC10849652.
Some of the results follow. Residues, ends and D or L forms follow the SMILES beside them. *: point of attachment. Cbz = O=C(OCc1ccccc1)*

By UniProt entry, the sequences of proteins in these tests, tags left out. Where a name states a change or a piece, a line headed by the entry shows the natural chain unless it says otherwise.
UniProt Q11206: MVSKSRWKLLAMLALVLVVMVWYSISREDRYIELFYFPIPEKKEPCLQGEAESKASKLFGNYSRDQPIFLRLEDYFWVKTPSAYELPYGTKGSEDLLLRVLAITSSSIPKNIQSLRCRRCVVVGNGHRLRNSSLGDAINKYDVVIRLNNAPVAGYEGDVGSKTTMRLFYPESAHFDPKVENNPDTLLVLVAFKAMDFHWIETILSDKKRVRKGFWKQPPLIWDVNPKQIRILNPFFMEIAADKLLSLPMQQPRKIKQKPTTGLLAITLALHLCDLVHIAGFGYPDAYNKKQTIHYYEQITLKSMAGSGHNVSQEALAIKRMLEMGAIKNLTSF
UniProt Q9NP77: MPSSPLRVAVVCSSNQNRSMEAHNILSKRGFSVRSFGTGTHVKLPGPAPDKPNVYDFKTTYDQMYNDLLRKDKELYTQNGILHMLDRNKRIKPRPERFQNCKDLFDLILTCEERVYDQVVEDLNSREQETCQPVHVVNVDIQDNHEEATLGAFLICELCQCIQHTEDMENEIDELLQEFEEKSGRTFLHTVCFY
UniProt P15907: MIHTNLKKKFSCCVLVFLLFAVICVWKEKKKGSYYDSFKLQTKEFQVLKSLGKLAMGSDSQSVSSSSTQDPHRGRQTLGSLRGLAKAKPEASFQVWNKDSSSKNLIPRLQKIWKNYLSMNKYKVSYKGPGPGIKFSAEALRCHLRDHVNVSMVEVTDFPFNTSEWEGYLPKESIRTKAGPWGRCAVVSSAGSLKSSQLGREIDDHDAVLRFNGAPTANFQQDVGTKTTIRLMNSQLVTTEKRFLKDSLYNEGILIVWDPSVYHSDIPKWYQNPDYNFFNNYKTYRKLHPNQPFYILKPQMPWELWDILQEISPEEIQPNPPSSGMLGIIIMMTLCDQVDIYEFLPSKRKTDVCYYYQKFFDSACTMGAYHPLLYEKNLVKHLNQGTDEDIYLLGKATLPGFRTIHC
UniProt Q9P246, whole entry, looked up: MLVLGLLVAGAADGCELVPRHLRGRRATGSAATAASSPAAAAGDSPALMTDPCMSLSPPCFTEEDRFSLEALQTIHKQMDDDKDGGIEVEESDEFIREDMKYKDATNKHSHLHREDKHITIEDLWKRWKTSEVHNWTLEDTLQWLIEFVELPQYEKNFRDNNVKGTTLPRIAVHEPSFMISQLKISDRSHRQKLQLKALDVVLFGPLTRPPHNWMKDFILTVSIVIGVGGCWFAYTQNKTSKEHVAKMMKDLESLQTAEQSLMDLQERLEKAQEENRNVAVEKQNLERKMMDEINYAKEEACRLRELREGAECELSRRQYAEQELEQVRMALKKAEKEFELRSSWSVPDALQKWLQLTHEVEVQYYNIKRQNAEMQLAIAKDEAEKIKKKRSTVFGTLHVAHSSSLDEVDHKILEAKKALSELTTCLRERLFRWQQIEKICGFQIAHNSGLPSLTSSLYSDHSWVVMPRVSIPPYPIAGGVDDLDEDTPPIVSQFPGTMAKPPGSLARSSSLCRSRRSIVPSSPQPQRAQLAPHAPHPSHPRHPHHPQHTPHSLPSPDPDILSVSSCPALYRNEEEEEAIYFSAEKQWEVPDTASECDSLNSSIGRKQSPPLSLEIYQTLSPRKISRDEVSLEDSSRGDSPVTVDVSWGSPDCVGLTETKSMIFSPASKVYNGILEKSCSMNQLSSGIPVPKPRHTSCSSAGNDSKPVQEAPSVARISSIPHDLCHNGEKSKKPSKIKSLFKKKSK
UniProt O75494: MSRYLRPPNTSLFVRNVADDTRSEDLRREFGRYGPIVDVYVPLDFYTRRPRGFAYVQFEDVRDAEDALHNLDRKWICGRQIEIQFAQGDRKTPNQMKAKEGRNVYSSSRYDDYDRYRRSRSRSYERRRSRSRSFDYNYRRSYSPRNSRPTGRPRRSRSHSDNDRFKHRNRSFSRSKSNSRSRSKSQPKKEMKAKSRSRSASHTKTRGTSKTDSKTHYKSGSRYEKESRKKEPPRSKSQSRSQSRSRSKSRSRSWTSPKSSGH
UniProt Q13247: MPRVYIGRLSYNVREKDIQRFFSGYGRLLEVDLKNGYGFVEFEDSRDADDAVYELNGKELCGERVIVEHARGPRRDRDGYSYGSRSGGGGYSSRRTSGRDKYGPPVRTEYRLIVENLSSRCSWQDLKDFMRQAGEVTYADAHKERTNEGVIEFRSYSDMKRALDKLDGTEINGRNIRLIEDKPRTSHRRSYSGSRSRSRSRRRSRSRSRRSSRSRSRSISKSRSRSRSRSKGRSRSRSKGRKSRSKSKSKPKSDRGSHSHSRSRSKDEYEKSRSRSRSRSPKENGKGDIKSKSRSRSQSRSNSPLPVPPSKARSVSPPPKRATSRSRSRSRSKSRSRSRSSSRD
UniProt Q13103: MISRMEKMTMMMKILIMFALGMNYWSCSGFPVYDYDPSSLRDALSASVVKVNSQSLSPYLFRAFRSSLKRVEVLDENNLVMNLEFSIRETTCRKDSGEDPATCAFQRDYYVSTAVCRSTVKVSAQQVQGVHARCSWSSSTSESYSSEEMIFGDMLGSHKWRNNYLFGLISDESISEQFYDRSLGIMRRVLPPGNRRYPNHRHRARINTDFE
UniProt Q9UHB9: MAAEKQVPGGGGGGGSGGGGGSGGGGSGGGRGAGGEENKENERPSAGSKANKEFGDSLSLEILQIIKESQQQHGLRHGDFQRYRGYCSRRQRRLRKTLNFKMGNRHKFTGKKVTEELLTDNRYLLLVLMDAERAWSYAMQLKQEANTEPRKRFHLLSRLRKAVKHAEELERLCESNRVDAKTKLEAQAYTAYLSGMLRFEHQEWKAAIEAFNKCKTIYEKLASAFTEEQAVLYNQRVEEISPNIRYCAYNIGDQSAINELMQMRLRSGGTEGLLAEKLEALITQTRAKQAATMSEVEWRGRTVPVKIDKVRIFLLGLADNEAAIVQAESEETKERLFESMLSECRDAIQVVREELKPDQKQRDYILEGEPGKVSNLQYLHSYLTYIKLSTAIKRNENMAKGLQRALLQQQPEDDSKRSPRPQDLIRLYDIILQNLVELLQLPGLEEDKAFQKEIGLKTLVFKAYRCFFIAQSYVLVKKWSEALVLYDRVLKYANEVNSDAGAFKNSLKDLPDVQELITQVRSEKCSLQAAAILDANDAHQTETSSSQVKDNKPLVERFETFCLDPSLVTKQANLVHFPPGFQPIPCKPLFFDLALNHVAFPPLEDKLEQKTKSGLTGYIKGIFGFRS
UniProt Q16842: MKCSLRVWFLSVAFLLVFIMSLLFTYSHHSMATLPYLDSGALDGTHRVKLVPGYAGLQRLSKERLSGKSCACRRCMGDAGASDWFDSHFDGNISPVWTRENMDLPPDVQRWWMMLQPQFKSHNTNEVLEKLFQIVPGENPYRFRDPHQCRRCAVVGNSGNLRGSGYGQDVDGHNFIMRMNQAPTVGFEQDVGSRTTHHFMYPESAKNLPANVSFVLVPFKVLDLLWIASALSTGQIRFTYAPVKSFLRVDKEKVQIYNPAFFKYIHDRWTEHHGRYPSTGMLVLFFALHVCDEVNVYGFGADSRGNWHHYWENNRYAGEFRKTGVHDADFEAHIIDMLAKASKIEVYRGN
UniProt P42226: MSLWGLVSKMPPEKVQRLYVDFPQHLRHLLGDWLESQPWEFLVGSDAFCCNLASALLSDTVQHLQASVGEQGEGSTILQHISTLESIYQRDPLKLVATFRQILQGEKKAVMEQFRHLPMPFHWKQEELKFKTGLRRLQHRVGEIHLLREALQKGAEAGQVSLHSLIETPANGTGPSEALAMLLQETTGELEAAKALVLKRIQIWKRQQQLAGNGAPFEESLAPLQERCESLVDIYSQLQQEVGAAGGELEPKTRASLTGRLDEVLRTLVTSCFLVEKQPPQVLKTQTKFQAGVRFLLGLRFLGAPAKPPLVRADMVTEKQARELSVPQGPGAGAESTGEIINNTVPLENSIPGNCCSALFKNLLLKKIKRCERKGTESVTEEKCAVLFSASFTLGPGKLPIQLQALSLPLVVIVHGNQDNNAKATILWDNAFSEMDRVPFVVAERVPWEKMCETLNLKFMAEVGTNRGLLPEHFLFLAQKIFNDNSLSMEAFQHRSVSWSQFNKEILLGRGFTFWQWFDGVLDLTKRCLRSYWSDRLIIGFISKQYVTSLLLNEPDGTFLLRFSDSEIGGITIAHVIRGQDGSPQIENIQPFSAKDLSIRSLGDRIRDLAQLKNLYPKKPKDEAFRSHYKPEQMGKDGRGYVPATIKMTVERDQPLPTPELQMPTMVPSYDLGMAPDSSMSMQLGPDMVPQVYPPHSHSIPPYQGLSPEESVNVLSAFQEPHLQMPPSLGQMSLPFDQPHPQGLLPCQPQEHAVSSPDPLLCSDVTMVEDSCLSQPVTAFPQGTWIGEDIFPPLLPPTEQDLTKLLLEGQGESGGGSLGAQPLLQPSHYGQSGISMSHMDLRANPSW
UniProt Q14849, whole entry, looked up: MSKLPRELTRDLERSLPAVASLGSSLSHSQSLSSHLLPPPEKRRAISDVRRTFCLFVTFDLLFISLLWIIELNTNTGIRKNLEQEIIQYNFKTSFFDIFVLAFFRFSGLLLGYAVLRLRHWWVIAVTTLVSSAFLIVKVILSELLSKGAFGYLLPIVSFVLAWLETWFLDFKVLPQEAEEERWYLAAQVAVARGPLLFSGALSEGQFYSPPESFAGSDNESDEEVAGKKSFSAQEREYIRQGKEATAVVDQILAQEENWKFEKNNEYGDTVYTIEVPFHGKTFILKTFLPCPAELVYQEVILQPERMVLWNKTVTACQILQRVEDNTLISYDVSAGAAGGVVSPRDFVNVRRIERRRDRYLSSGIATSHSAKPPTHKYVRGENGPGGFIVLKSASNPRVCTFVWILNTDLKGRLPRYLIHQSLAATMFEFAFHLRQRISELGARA
UniProt Q9P289: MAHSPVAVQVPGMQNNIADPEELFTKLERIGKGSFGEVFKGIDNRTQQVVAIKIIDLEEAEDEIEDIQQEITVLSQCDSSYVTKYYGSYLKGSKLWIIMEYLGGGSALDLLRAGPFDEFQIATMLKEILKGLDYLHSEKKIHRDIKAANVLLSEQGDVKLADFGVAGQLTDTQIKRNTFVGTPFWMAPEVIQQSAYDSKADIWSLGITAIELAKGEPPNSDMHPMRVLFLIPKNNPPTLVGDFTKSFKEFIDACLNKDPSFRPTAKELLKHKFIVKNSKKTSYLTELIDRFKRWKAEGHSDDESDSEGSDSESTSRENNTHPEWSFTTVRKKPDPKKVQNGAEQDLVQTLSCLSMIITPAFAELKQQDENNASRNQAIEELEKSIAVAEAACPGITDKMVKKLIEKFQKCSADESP
UniProt Q13242, whole entry, looked up: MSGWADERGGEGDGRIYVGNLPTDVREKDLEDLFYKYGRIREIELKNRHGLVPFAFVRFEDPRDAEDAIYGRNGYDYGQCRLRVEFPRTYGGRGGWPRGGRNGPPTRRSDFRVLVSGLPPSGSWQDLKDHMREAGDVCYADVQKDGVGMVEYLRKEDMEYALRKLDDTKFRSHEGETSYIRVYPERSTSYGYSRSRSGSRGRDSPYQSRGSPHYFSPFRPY
UniProt Q9BUA3: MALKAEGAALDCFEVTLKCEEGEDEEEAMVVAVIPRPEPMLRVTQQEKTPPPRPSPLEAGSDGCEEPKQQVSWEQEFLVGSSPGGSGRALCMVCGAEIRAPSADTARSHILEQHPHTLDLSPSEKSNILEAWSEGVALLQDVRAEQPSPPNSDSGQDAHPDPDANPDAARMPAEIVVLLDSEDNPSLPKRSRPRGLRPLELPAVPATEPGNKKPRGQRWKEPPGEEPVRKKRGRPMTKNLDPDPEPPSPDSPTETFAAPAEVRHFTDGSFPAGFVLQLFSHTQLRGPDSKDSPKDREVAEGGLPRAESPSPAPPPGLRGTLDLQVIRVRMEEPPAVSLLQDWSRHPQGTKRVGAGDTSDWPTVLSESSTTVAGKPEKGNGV
UniProt Q9BWW4: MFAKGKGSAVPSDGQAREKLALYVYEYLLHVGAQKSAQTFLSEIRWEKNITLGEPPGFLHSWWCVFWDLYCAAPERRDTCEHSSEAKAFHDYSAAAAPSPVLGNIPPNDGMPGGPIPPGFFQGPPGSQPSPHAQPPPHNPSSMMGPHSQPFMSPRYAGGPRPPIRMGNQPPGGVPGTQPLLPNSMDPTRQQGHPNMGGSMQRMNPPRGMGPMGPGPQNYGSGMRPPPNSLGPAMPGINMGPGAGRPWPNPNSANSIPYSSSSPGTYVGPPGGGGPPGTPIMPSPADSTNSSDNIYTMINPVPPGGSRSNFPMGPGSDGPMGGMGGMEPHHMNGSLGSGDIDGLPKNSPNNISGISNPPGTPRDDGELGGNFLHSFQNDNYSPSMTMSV
UniProt Q9BWG4: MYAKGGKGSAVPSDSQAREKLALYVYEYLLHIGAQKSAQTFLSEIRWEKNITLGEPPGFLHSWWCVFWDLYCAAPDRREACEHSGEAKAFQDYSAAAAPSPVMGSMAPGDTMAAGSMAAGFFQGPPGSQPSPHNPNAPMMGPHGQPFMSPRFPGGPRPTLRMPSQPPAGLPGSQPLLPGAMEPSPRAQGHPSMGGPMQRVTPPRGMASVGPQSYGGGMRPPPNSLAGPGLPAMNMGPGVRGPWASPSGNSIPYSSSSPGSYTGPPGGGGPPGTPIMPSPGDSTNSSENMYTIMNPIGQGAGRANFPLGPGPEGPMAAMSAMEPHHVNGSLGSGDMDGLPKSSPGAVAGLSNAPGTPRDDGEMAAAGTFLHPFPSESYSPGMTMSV

Experiments:
Assay in all cases: log2 fold change, soluble protein after heating vs DMSO (PISA); higher = thermal stabilisation; K562 cells, 10 uM, 30 min; active = over 0.2 and 3.5 SD of the protein, either way, in both replicates (recomputed)
erlotinib = compound: C#Cc1cccc(Nc2ncnc3cc(OCCOC)c(OCCOC)cc23)c1 [erlotinib]
How it was run: (§1)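 K562 cells (2×10^6 cells/mL) were treated with 10 μM compound for 30 min, and aliquots were heated for 3 min over 48°C-58°C. Pooled aliquots were extracted in PBS with 0.5% NP-40 at 4°C, and the supernatant after 21,000xg for 90 min was measured by TMTpro 16plex LC-MS/MS with channel sums equalised. Reported thermal stability, relative to control samples and from duplicates, is a log2 fold change.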

[1] = compound: C/C(=N\NC(=O)C1=CC(=CC=C1)S(=O)(=O)N2CCOCC2)/C3=C(C=CC(=C3)Cl)O
How it was run: as §1

[2] = compound: C1=CC(=C(C=C1Cl)C2=NC3=NC=CN=C3C(=N2)NC4=CC=NC=C4)F
How it was run: as §1

[3] = compound: C1=CC(=CC=C1C2=NC3=C(N2)C=C(C=C3)C(=O)N)OC4=CC=C(C=C4)Cl
How it was run: as §1

[4] = compound: C1=CC2=C(C=CC(=C2)/C=C\3/C(=O)NC(=NCC4=CC=CS4)S3)N=C1
How it was run: as §1

[5] = compound: C1=CC2=NC=CN=C2C=C1/C=C/3\C(=O)NC(=O)S3
How it was run: as §1

[6] = compound: C1=CC=C2C(=C1)C3=NNC4=CC=CC(=C43)C2=O
How it was run: as §1

[7] = compound: C1CCN(C1)C(=O)NC2=CC=CC(=C2)NC3=NC=C(C(=N3)NCCC4=CN=CN4)Br
How it was run: as §1

[8] = compound: C1CN(CCC1(CC2=CC=C(C=C2)Cl)N)C3=NC=NC4=C3C=CN4
How it was run: as §1

ibrutinib = compound: C=CC(=O)N1CCC[C@@H](n2nc(-c3ccc(Oc4ccccc4)cc3)c3c(N)ncnc32)C1 [ibrutinib]
How it was run: as §1

[9] = compound: CC(=O)c1cnc2ccc(-c3cc(Cl)c(O)c(Cl)c3)nc2c1N[C@H]1CC[C@H](CN(C)C)CC1
How it was run: as §1

[10] = compound: CC(C)(O)CC(=O)NCCn1ccc2ncnc(Nc3ccc(Oc4cccc(C(F)(F)F)c4)c(Cl)c3)c21
How it was run: as §1

[11] = compound: CC(C)C1=C2N=C(C=C(N2N=C1)NCC3=CC=CC=C3)NCCCCCCN
How it was run: as §1

[12] = compound: CC1=C(C(CC(=O)N1)C2=CC=C(C=C2)C(F)(F)F)C(=O)NC3=C(C=C4C(=C3)C=NN4)F
How it was run: as §1

[13] = compound: CC1=C(C2=C(C=C1)C(=O)C3=CC=CC=C3N2CCCN)C
How it was run: as §1

IRAK-1-4 Inhibitor I = compound: C1COCCN1CCN2C3=CC=CC=C3N=C2NC(=O)C4=CC(=CC=C4)[N+](=O)[O-] [IRAK-1-4 Inhibitor I]
How it was run: as §1

pinometostat = compound: CC(C)N(C[C@H]1O[C@@H](n2cnc3c(N)ncnc32)[C@H](O)[C@@H]1O)[C@H]1C[C@@H](CCc2nc3cc(C(C)(C)C)ccc3[nH]2)C1 [pinometostat]
How it was run: as §1

[14] = compound: C1=CC=C(C=C1)C2=NC(=C(N2)C3=CC=NC=C3)C4=CC(=C(C=C4)Cl)O
How it was run: as §1

ralimetinib = compound: CC(C)(C)Cn1c(N)nc2ccc(-c3[nH]c(C(C)(C)C)nc3-c3ccc(F)cc3)nc21 [ralimetinib]
How it was run: as §1

[15] = compound: CC(C)C[C@@H](C=O)NC(=O)[C@H](CC(C)C)NC(=O)[C@H](CC(C)C)NC(=O)OCc1ccccc1
How it was run: as §1

Target | log2 fold change (erlotinib) | log2 fold change [1] | log2 fold change [2] | log2 fold change [3] | log2 fold change [4] | log2 fold change [5] | log2 fold change [6] | log2 fold change [7] | log2 fold change [8] | log2 fold change (ibrutinib) | log2 fold change [9] | log2 fold change [10] | log2 fold change [11] | log2 fold change [12] | log2 fold change [13] | log2 fold change (IRAK-1-4 Inhibitor I) | log2 fold change (pinometostat) | log2 fold change [14] | log2 fold change (ralimetinib) | log2 fold change [15]
ST3GAL4 isoform 4 (UniProt Q11206) | inactive: -0.056 | inactive: 0.004 | inactive: -0.073 | inactive: 0.088 | inactive: -0.079 | inactive: 0.034 | inactive: 0.16 | inactive: 0.078 | inactive: -0.052 | inactive: 0.065 | inactive: 0.01 | inactive: 0.047 | inactive: -0.213 | inactive: 0.022 | inactive: 0.071 |  |  |  |  | 
SSU72 (UniProt Q9NP77) | inactive: 0.119 | inactive: 0.295 | inactive: 0.084 | inactive: 0.015 | inactive: 0.22 | inactive: 0.033 | inactive: 0.024 | inactive: -0.005 | inactive: -0.063 | inactive: -0.144 | inactive: -0.134 | inactive: -0.128 | inactive: -0.299 |  | inactive: -0.108 | inactive: -0.244 | inactive: 0.118 |  |  | 
SPECC1 (UniProt Q5M775) | inactive: 0.044 | inactive: -0.002 | inactive: 0.022 | inactive: 0 | inactive: 0.056 | inactive: 0.02 | inactive: -0.023 | inactive: 0.026 | inactive: 0.012 | inactive: -0.068 | inactive: -0.035 | inactive: 0.025 | inactive: 0.08 |  | inactive: -0.01 | inactive: 0.01 | inactive: -0.25 | inactive: -0.208 | inactive: -0.107 | inactive: 0.003
STK11IP (UniProt Q8N1F8) | inactive: 0.025 | inactive: 0.152 | inactive: -0.079 | inactive: -0.243 | inactive: 0.094 | inactive: 0.006 | inactive: -0.062 | inactive: 0.042 | inactive: -0.01 | inactive: 0.027 | inactive: -0.02 | inactive: -0.131 | active: -0.932 |  | inactive: -0.183 | inactive: -0.248 | inactive: 0.168 |  |  | 
ST6GAL1 (UniProt P15907) | inactive: 0.053 | inactive: 0.006 | inactive: 0.017 | inactive: 0.022 | inactive: -0.033 | inactive: -0.009 | inactive: 0.048 | inactive: -0.064 | inactive: 0.041 | inactive: 0.002 | inactive: 0.021 | inactive: 0.058 | inactive: -0.051 |  | inactive: 0.011 | inactive: -0.01 | inactive: 0.024 | inactive: 0.064 | inactive: 0.041 | inactive: -0.009
STIM2 isoform 2 (UniProt Q9P246) | inactive: 0.012 | inactive: 0.056 | inactive: -0.134 | inactive: 0.017 | inactive: 0.126 |  | inactive: 0.003 | inactive: -0.175 | inactive: -0.058 |  | inactive: -0.206 | inactive: -0.032 | inactive: -0.278 | inactive: -0.238 | inactive: 0.033 |  |  |  |  | 
SRSF10 (UniProt O75494) | inactive: 0.004 | inactive: -0.284 | active: -0.701 | inactive: 0.035 | inactive: -0.044 | inactive: 0.048 | inactive: -0.022 | inactive: 0.063 | inactive: -0.135 | inactive: 0.07 | inactive: -0.047 | inactive: 0.218 | inactive: 0.002 |  | inactive: -0.396 | inactive: -0.179 | inactive: 0.418 | inactive: -0.148 | inactive: 0.185 | inactive: 0.102
SRSF6 (UniProt Q13247) | inactive: 0.084 | inactive: 0.096 | inactive: -0.072 | inactive: 0.062 | inactive: -0.325 | inactive: 0.079 | inactive: -0.251 | inactive: 0.09 | inactive: -0.154 | inactive: -0.072 | inactive: -0.167 | inactive: 0.234 | inactive: -0.086 |  | inactive: -0.744 | inactive: -0.082 | inactive: 0.116 |  |  | 
SPP2 (UniProt Q13103) | inactive: -0.098 | inactive: -0.171 | inactive: -0.038 | inactive: 0.037 | inactive: 0 | inactive: -0.064 | inactive: -0.259 | inactive: -0.001 | inactive: 0.12 | inactive: 0.069 | inactive: 0.167 | inactive: 0.15 | inactive: 0.18 |  | inactive: -0.156 |  |  |  |  | 
SRP68 (UniProt Q9UHB9) | inactive: 0.047 | inactive: 0.034 | inactive: -0.043 | inactive: -0.071 | inactive: 0.011 | inactive: 0.01 | inactive: -0.087 | inactive: 0.015 | inactive: -0.107 | inactive: -0.037 | inactive: 0.014 | inactive: -0.065 | inactive: -0.272 |  | active: -0.345 | inactive: -0.118 | inactive: 0.145 | inactive: 0.002 | inactive: 0.071 | inactive: 0.065
ST3GAL2 (UniProt Q16842) | inactive: 0.032 | inactive: 0.07 | inactive: -0.069 | inactive: 0.009 | inactive: -0.085 | inactive: -0.052 | inactive: 0.045 | inactive: -0.024 | inactive: 0.108 | inactive: -0.105 | inactive: -0.115 | inactive: 0.119 | inactive: -0.12 |  | inactive: 0.046 | inactive: -0.183 | inactive: -0.031 | inactive: -0.057 | inactive: -0.009 | inactive: 0.066
STAT6 (UniProt P42226) | inactive: 0.082 | inactive: 0.061 | inactive: 0.12 | inactive: 0.018 | inactive: 0.022 | inactive: -0.032 | inactive: -0.026 | inactive: -0.063 | inactive: 0.04 | inactive: 0.031 | inactive: -0.222 | inactive: -0.128 | inactive: -0.058 |  | inactive: -0.048 | inactive: -0.145 | inactive: 0.11 | inactive: 0.025 | inactive: 0.054 | inactive: 0.007
STARD3 (UniProt Q14849) | inactive: -0.073 | inactive: 0.133 | inactive: -0.05 | inactive: 0.022 | inactive: -0.095 | inactive: 0.058 | inactive: 0.197 | inactive: 0.059 | inactive: 0.04 | inactive: 0.23 | inactive: -0.033 | inactive: -0.075 | active: -0.429 |  | inactive: -0.044 | inactive: -0.075 | inactive: 0 | inactive: -0.028 | inactive: 0.033 | inactive: 0.122
STK26 (UniProt Q9P289) | inactive: 0.058 | inactive: -0.014 | inactive: 0.195 | inactive: -0.014 | inactive: -0.008 | inactive: 0.124 | inactive: -0.08 | inactive: 0.023 | inactive: 0.02 | active: -0.272 | active: -0.344 | inactive: -0.081 | inactive: -0.071 |  | inactive: -0.07 | inactive: 0.03 | inactive: -0.019 | inactive: -0.015 | inactive: -0.022 | inactive: 0.03
SRSF9 (UniProt Q13242) | inactive: -0.084 | inactive: -0.4 | active: -0.721 | inactive: 0.138 | inactive: -0.211 | inactive: 0.052 | inactive: -0.229 |  |  | inactive: 0.106 | inactive: -0.13 | inactive: 0.219 | inactive: 0.019 |  |  | inactive: -0.094 | inactive: 0.29 | inactive: -0.087 | inactive: 0.199 | inactive: 0.171
SPINDOC (UniProt Q9BUA3) | inactive: -0.013 | inactive: -0.017 | inactive: -0.01 | inactive: -0.044 | inactive: 0.036 | inactive: 0.074 | inactive: -0.066 | inactive: -0.129 | inactive: 0.09 | inactive: 0.089 | inactive: 0.017 | inactive: -0.01 | inactive: 0.103 |  | inactive: -0.24 | inactive: 0.029 | inactive: 0.075 | inactive: -0.063 | inactive: 0.084 | inactive: 0
SSBP3 (UniProt Q9BWW4) | inactive: -0.027 | inactive: 0.003 | inactive: -0.045 | inactive: 0.059 | inactive: 0.073 | inactive: 0.026 | inactive: 0.011 | inactive: -0.017 | inactive: 0.01 | inactive: 0.005 | inactive: -0.162 | inactive: -0.091 | inactive: 0.098 | inactive: -0.06 | inactive: 0.121 |  |  | inactive: -0.009 | inactive: -0.099 | inactive: -0.086
SSBP4 (UniProt Q9BWG4) | inactive: 0.08 | inactive: 0.076 |  | inactive: 0.043 | inactive: -0.054 | inactive: -0.056 | inactive: -0.099 | inactive: 0.022 | inactive: -0.024 | inactive: 0.001 | inactive: -0.081 |  | inactive: 0.058 |  | inactive: 0.015 | inactive: 0.013 | inactive: 0.09 | inactive: -0.052 | inactive: -0.131 | inactive: 0.011

Reprinted at random: 2 entries already listed.
Target | log2 fold change (erlotinib) | log2 fold change [1] | log2 fold change [2] | log2 fold change [3] | log2 fold change [4] | log2 fold change [5] | log2 fold change [6] | log2 fold change [7] | log2 fold change [8] | log2 fold change (ibrutinib) | log2 fold change [9] | log2 fold change [10] | log2 fold change [11] | log2 fold change [12] | log2 fold change [13] | log2 fold change (IRAK-1-4 Inhibitor I) | log2 fold change (pinometostat) | log2 fold change [14] | log2 fold change (ralimetinib) | log2 fold change [15]
SSBP3 (UniProt Q9BWW4) | inactive: -0.027 | inactive: 0.003 | inactive: -0.045 | inactive: 0.059 | inactive: 0.073 | inactive: 0.026 | inactive: 0.011 | inactive: -0.017 | inactive: 0.01 | inactive: 0.005 | inactive: -0.162 | inactive: -0.091 | inactive: 0.098 | inactive: -0.06 | inactive: 0.121 |  |  | inactive: -0.009 | inactive: -0.099 | inactive: -0.086
SRSF6 (UniProt Q13247) | inactive: 0.084 | inactive: 0.096 | inactive: -0.072 | inactive: 0.062 | inactive: -0.325 | inactive: 0.079 | inactive: -0.251 | inactive: 0.09 | inactive: -0.154 | inactive: -0.072 | inactive: -0.167 | inactive: 0.234 | inactive: -0.086 |  | inactive: -0.744 | inactive: -0.082 | inactive: 0.116 |  |  | 
